Results as given in patent US20240027467A1.
Results are given in words; binding and its absence hold for the method and conditions named. Binding can be weak; no strength is given. Where a sequence is shown, tags or fusion partners need not be part of it. For some assays here: In cells and extracts the contact can be indirect.

Experiments:
[1] = biological target: ALD6 (Saccharomyces cerevisiae;Aequorea victoria); test: pull-down from yeast cell lysate on magnetic beads coupled with trapper CA15816, anti-GFP western blot of the beads
[2] = biological target: FBA1 (Saccharomyces cerevisiae;Aequorea victoria); test: as above
[3] = biological target: BMH1 (Saccharomyces cerevisiae;Aequorea victoria); test: as above
[4] = biological target: SSA1 (Saccharomyces cerevisiae;Aequorea victoria); test: as above
[5] = biological target: PGI1 (Saccharomyces cerevisiae;Aequorea victoria); test: as above
[6] = biological target: BMH1 (Saccharomyces cerevisiae;Aequorea victoria); test: NANEX elution from CA15816 magnetic beads with 40 ul stripper Nb CA12760 at 0.5 mg/ml, anti-GFP western blot of the eluate
[7] = biological target: SSA1 (Saccharomyces cerevisiae;Aequorea victoria); test: as above
[8] = biological target: PGI1 (Saccharomyces cerevisiae;Aequorea victoria); test: as above

Measured: binding

B1: CA15816 GFP-NbT54A/V55A (C-term. 6xHis + EPEA) (VHH)
VHH: QVQLVESGGGLVQAGGSLRLSCAASGRTFSTAAMGWFRQAPGKERDFVAGIYWAAGSTYYADSAKGRFTISRDNAKNTVYLQMDSLKPEDTAVYYCAARRRGFTLAPTRANEYDYWGQGTQVTVSS
modifications: biotinylated for BLI
binds: [1] | [2] | [3] | [4] | [5]

B2: CA12760 GFP-Nb207 (including C-terminal 6xHis + EPEA tag) (VHH)
VHH: QVQLVESGGGLVQAGGSLRLSCAASGRTFSTAAMGWFRQAPGKERDFVAGIYWTVGSTYYADSAKGRFTISRDNAKNTVYLQMDSLKPEDTAVYYCAARRRGFTLAPTRANEYDYWGQGTQVTVSS
modifications: biotinylated for BLI
binds: [6] | [7] | [8]
